PubChem BioAssay AID743121 | NCATS, 2013

Test: 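Genes whose silencing strengthens cell killing by camptothecin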 (primary screen)
Cells: MDA-MB-231 cells, a human breast cancer line
Knock-down reagent: single siRNA against human genes, 20 nM siRNA (0.8 pmol per well)
Duration: 120 h (drug added 48 h after transfection, read 72 h later)
Conditions: camptothecin 20 nM (about EC30) for 72 h; vehicle 0.1% DMSO in parallel plates
Measured: 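CellTiter-Glo ATP signal, scaled to control siRNA as percent viability; sensitisation given as log2 of untreated divided by camptothecin-treated viability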
Reading the numbers: log2 vehicle/camptothecin viability: higher = stronger sensitisation to camptothecin; viability with camptothecin: higher = more viable cells
Rule for the call: 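Active genes have an RSA gene-level p-value below 0.001, computed from the ratios of their separate siRNAs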
Here is an unselected part of about 26,000 reagents. Of all reagents, 167 (0.63%) were called active. 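Calls are per gene from RSA p-values that are not deposited; an individual active-marked siRNA can sensitise only weakly.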 The numbers tell different reagents against one gene apart. Not all columns of the deposit are shown.

| Gene | reagent | log2 vehicle/camptothecin viability | viability with camptothecin (% of control) | Call |
| --- | --- | --- | --- | --- |
| GTF2IRD1 (GTF2I repeat domain containing 1) | 1 | -0.297 | 113 | inactive |
| GTF2IRD1 (GTF2I repeat domain containing 1) | 2 | -0.249 | 94.5 | inactive |
| GTF2IRD1 (GTF2I repeat domain containing 1) | 3 | 0.00877 | 109 | inactive |
| GTF2IRD1 (GTF2I repeat domain containing 1) | 4 | -0.228 | 105 | inactive |
| CDC16 (cell division cycle 16) | 1 | -0.378 | 105 | inactive |
| CDC16 (cell division cycle 16) | 2 | 0.546 | 51.5 | inactive |
| CDC16 (cell division cycle 16) | 3 | -0.0152 | 86.5 | inactive |
| CDC16 (cell division cycle 16) | 4 | -0.216 | 59.6 | inactive |
| TRIM28 (tripartite motif containing 28) | 1 | -0.485 | 112 | inactive |
| TRIM28 (tripartite motif containing 28) | 2 | -0.685 | 47.8 | inactive |
| TRIM28 (tripartite motif containing 28) | 3 | -0.442 | 68.2 | inactive |
| TRIM28 (tripartite motif containing 28) | 4 | -0.584 | 91.5 | inactive |
| RASA4 (RAS p21 protein activator 4) | 1 | -0.0788 | 100 | inactive |
| RASA4 (RAS p21 protein activator 4) | 2 | -0.385 | 48.1 | inactive |
| RASA4 (RAS p21 protein activator 4) | 3 | -0.0636 | 66.6 | inactive |
| RASA4 (RAS p21 protein activator 4) | 4 | -0.22 | 119 | inactive |
| RAC1 (Rac family small GTPase 1) | 1 | -0.704 | 87.8 | inactive |
| RAC1 (Rac family small GTPase 1) | 2 | -0.382 | 94.4 | inactive |
| RAC1 (Rac family small GTPase 1) | 3 | -0.155 | 53.7 | inactive |
| RAC1 (Rac family small GTPase 1) | 4 | -0.388 | 66.1 | inactive |
| OR10H5 (olfactory receptor family 10 subfamily H member 5) | 1 | -0.369 | 110 | inactive |
| OR10H5 (olfactory receptor family 10 subfamily H member 5) | 2 | 0.0314 | 73.8 | inactive |
| OR10H5 (olfactory receptor family 10 subfamily H member 5) | 3 | 0.0606 | 38.6 | inactive |
| AGBL2 (AGBL carboxypeptidase 2) | 1 | -0.295 | 43.6 | inactive |
| AGBL2 (AGBL carboxypeptidase 2) | 2 | -0.0984 | 84.2 | inactive |
| AGBL2 (AGBL carboxypeptidase 2) | 3 | 0.207 | 83.6 | inactive |
| AGBL2 (AGBL carboxypeptidase 2) | 4 | -0.523 | 83.5 | inactive |
| MDK (midkine) | 1 | 0.0591 | 78.9 | inactive |
| MDK (midkine) | 2 | 0.164 | 78.1 | inactive |
| MDK (midkine) | 3 | 0.0637 | 71.3 | inactive |
| MDK (midkine) | 4 | -0.00727 | 107 | inactive |
